Test results as given in PubChem BioAssay AID188 (DTP/NCI, 2004).
Values are animals surviving of animals treated; these mice carried no tumour. Counts of survivors are from the toxicity check (mostly the fifth day) where no day follows; animals may have died later. Schedules are NCI's codes, taken here to give the interval after Q, in days (D) or hours (H), and the number of doses after X. Some doses were run more than once; their values stand side by side, smallest first.

Tested on: CD2F1 mice, nontumored, toxicity/survival
Test: NCI In Vivo Anticancer Drug Screen. Data for tumor model Nontumored Animals (Toxicity Test) in CD2F1 (CDF1) mice

CC1CCC(NC(=O)N(CCCl)N=O)CC1 (stereo unspecified)
survivor count (dose: 3.0 mg/kg/injection, schedule: Q04DX002 (ip), vehicle: other): 10 of 10
survivor count (dose: 5.0 mg/kg/injection, schedule: Q01DX001 (ip), vehicle: other): 4 of 4
survivor count (dose: 5.8 mg/kg/injection, schedule: Q04DX002 (ip), vehicle: saline + alcohol): 4 of 4
survivor count (dose: 6.0 mg/kg/injection, schedule: Q04DX002 (ip), vehicle: other): 10 of 10
survivor count (dose: 9.6 mg/kg/injection, schedule: Q04DX002 (ip), vehicle: saline + alcohol): 4 of 4
survivor count (dose: 10.0 mg/kg/injection, schedule: Q01DX001 (ip), vehicle: other): 4 of 4
survivor count (dose: 10.9 mg/kg/injection, schedule: Q01DX001 (oral), vehicle: Klucel (hydroxypropylcellulose) (HPC)): 10 of 10
survivor count (dose: 10.9 mg/kg/injection, schedule: Q01DX001 (oral), vehicle: clinical formulation): 9 of 10
survivor count (dose: 12.0 mg/kg/injection, schedule: Q04DX002 (ip), vehicle: other): 10 of 10
survivor count (dose: 16.0 mg/kg/injection, schedule: Q04DX002 (ip), vehicle: saline + alcohol): 4 of 4
survivor count (dose: 16.5 mg/kg/injection, schedule: Q01DX001 (oral), vehicle: Klucel (hydroxypropylcellulose) (HPC)): 10 of 10
survivor count (dose: 16.5 mg/kg/injection, schedule: Q01DX001 (oral), vehicle: clinical formulation): 9 of 10
survivor count (dose: 20.0 mg/kg/injection, schedule: Q01DX001 (ip), vehicle: other): 4 of 4
survivor count (dose: 24.0 mg/kg/injection, schedule: Q01DX001 (ip), vehicle: other): 4 of 4
survivor count (dose: 24.7 mg/kg/injection, schedule: Q01DX001 (oral), vehicle: Klucel (hydroxypropylcellulose) (HPC)): 10 of 10
survivor count (dose: 24.7 mg/kg/injection, schedule: Q01DX001 (oral), vehicle: clinical formulation): 10 of 10
survivor count (dose: 26.7 mg/kg/injection, schedule: Q04DX002 (ip), vehicle: saline + alcohol): 4 of 4
survivor count (dose: 27.0 mg/kg/injection, schedule: Q01DX001 (ip), vehicle: saline with Tween-80): 10 of 10
survivor count (dose: 36.0 mg/kg/injection, schedule: Q01DX001 (ip), vehicle: other): 4 of 4
survivor count (dose: 37.0 mg/kg/injection, schedule: Q01DX001 (oral), vehicle: Klucel (hydroxypropylcellulose) (HPC)): 9 of 10
survivor count (dose: 37.0 mg/kg/injection, schedule: Q01DX001 (oral), vehicle: clinical formulation): 8 of 10
survivor count (dose: 40.0 mg/kg/injection, schedule: Q01DX001 (ip), vehicle: other): 4 of 4
survivor count (dose: 40.0 mg/kg/injection, schedule: Q01DX001 (ip), vehicle: saline with Tween-80): 10 of 10 and 4 of 4
survivor count (dose: 50.0 mg/kg/injection, schedule: Q01DX001 (ip), vehicle: saline with Tween-80): 10 of 10
survivor count (dose: 55.5 mg/kg/injection, schedule: Q01DX001 (oral), vehicle: Klucel (hydroxypropylcellulose) (HPC)): 6 of 10
survivor count (dose: 55.5 mg/kg/injection, schedule: Q01DX001 (oral), vehicle: clinical formulation): 3 of 10
survivor count (dose: 60.0 mg/kg/injection, schedule: Q01DX001 (ip), vehicle: other): 4 of 4
survivor count (dose: 66.7 mg/kg/injection, schedule: Q01DX001 (ip), vehicle: saline with Tween-80): 4 of 4
survivor count (dose: 83.3 mg/kg/injection, schedule: Q01DX001 (oral), vehicle: Klucel (hydroxypropylcellulose) (HPC)): 0 of 10
survivor count (dose: 83.3 mg/kg/injection, schedule: Q01DX001 (oral), vehicle: clinical formulation): 1 of 10
survivor count (dose: 100.0 mg/kg/injection, schedule: Q01DX001 (ip), vehicle: other): 4 of 4
survivor count (dose: 125.0 mg/kg/injection, schedule: Q01DX001 (oral), vehicle: Klucel (hydroxypropylcellulose) (HPC)): 0 of 10
survivor count (dose: 125.0 mg/kg/injection, schedule: Q01DX001 (oral), vehicle: clinical formulation): 0 of 10
survivor count (dose: 187.5 mg/kg/injection, schedule: Q01DX001 (oral), vehicle: Klucel (hydroxypropylcellulose) (HPC)): 0 of 10
survivor count (dose: 187.5 mg/kg/injection, schedule: Q01DX001 (oral), vehicle: clinical formulation): 0 of 10

COc1cc2c3c(c1)-c1c(ccc(OC)c1OC)CC3N(CCCl)CC2 (stereo unspecified)
survivor count (dose: 1.0 mg/kg/injection, schedule: Q01DX001 (ip), vehicle: water): 2 of 2
survivor count (dose: 10.0 mg/kg/injection, schedule: Q01DX001 (ip), vehicle: water): 2 of 2
survivor count (dose: 100.0 mg/kg/injection, schedule: Q01DX001 (ip), vehicle: water): 2 of 2

C1CC[N-]CC1.C1CC[N-]CC1.C1CC[N-]CC1.[Cl][Rh]([Cl])[Cl]
survivor count (dose: 1.0 mg/kg/injection, schedule: Q03HX024 (ip), vehicle: saline): 5 of 8 and 8 of 8
survivor count (dose: 2.0 mg/kg/injection, schedule: Q03HX008 (ip), vehicle: saline): 8 of 8
survivor count (dose: 2.0 mg/kg/injection, schedule: Q03HX016 (ip), vehicle: saline): 8 of 8
survivor count (dose: 2.0 mg/kg/injection, schedule: Q03HX024 (ip), vehicle: saline): 8 of 8
survivor count (dose: 4.0 mg/kg/injection, schedule: Q01DX009 (ip), vehicle: saline): 8 of 8
survivor count (dose: 4.0 mg/kg/injection, schedule: Q03HX008 (ip), vehicle: saline): 8 of 8
survivor count (dose: 4.0 mg/kg/injection, schedule: Q03HX016 (ip), vehicle: saline): 8 of 8
survivor count (dose: 4.0 mg/kg/injection, schedule: Q03HX024 (ip), vehicle: saline): 8 of 8
survivor count (dose: 8.0 mg/kg/injection, schedule: Q01DX009 (ip), vehicle: saline): 8 of 8
survivor count (dose: 8.0 mg/kg/injection, schedule: Q03HX008 (ip), vehicle: saline): 8 of 8
survivor count (dose: 8.0 mg/kg/injection, schedule: Q03HX016 (ip), vehicle: saline): 7 of 8 and 8 of 8
survivor count (dose: 8.0 mg/kg/injection, schedule: Q03HX024 (ip), vehicle: saline): 8 of 8
survivor count (dose: 8.0 mg/kg/injection, schedule: Q04DX003 (ip), vehicle: saline): 8 of 8
survivor count (dose: 16.0 mg/kg/injection, schedule: Q01DX001 (ip), vehicle: saline): 8 of 8
survivor count (dose: 16.0 mg/kg/injection, schedule: Q01DX009 (ip), vehicle: saline): 8 of 8
survivor count (dose: 16.0 mg/kg/injection, schedule: Q03HX008 (ip), vehicle: saline): 8 of 8
survivor count (dose: 16.0 mg/kg/injection, schedule: Q03HX016 (ip), vehicle: saline): 8 of 8
survivor count (dose: 16.0 mg/kg/injection, schedule: Q03HX024 (ip), vehicle: saline): 8 of 8
survivor count (dose: 16.0 mg/kg/injection, schedule: Q04DX003 (ip), vehicle: saline): 8 of 8
survivor count (dose: 16.0 mg/kg/injection, schedule: Q08DX002 (ip), vehicle: saline): 8 of 8
survivor count (dose: 32.0 mg/kg/injection, schedule: Q01DX001 (ip), vehicle: saline): 8 of 8
survivor count (dose: 32.0 mg/kg/injection, schedule: Q01DX009 (ip), vehicle: saline): 8 of 8
survivor count (dose: 32.0 mg/kg/injection, schedule: Q03HX008 (ip), vehicle: saline): 7 of 8 and 8 of 8
survivor count (dose: 32.0 mg/kg/injection, schedule: Q03HX016 (ip), vehicle: saline): 4 of 8 and 8 of 8
survivor count (dose: 32.0 mg/kg/injection, schedule: Q03HX024 (ip), vehicle: saline): 7 of 8 and 8 of 8
survivor count (dose: 32.0 mg/kg/injection, schedule: Q04DX003 (ip), vehicle: saline): 8 of 8
survivor count (dose: 32.0 mg/kg/injection, schedule: Q08DX002 (ip), vehicle: saline): 8 of 8
survivor count (dose: 64.0 mg/kg/injection, schedule: Q01DX001 (ip), vehicle: saline): 8 of 8
survivor count (dose: 64.0 mg/kg/injection, schedule: Q01DX009 (ip), vehicle: saline): 7 of 8 and 8 of 8
survivor count (dose: 64.0 mg/kg/injection, schedule: Q03HX008 (ip), vehicle: saline): 0 of 8 and 2 of 8
survivor count (dose: 64.0 mg/kg/injection, schedule: Q03HX016 (ip), vehicle: saline): 0 of 8 and 3 of 8
survivor count (dose: 64.0 mg/kg/injection, schedule: Q04DX003 (ip), vehicle: saline): 8 of 8
survivor count (dose: 64.0 mg/kg/injection, schedule: Q08DX002 (ip), vehicle: saline): 8 of 8
survivor count (dose: 128.0 mg/kg/injection, schedule: Q01DX001 (ip), vehicle: saline): 7 of 8
survivor count (dose: 128.0 mg/kg/injection, schedule: Q01DX009 (ip), vehicle: saline): 1 of 8 and 3 of 8
survivor count (dose: 128.0 mg/kg/injection, schedule: Q04DX003 (ip), vehicle: saline): 8 of 8
survivor count (dose: 128.0 mg/kg/injection, schedule: Q08DX002 (ip), vehicle: saline): 7 of 8 and 8 of 8
survivor count (dose: 256.0 mg/kg/injection, schedule: Q01DX001 (ip), vehicle: saline): 4 of 8
survivor count (dose: 256.0 mg/kg/injection, schedule: Q04DX003 (ip), vehicle: saline): 2 of 8 and 3 of 8
survivor count (dose: 256.0 mg/kg/injection, schedule: Q08DX002 (ip), vehicle: saline): 0 of 8 and 2 of 8
survivor count (dose: 512.0 mg/kg/injection, schedule: Q01DX001 (ip), vehicle: saline): 0 of 8 and 2 of 8
survivor count (dose: 512.0 mg/kg/injection, schedule: Q08DX002 (ip), vehicle: saline): 1 of 8 and 4 of 8

O=NN(CCCl)C(=O)NC1CCCCC1
survivor count (dose: 4.0 mg/kg/injection, schedule: Q04DX003 (ip), vehicle: saline + alcohol): 4 of 4
survivor count (dose: 8.0 mg/kg/injection, schedule: Q04DX003 (ip), vehicle: saline + alcohol): 4 of 4
survivor count (dose: 16.0 mg/kg/injection, schedule: Q04DX003 (ip), vehicle: saline + alcohol): 4 of 4
survivor count (dose: 24.0 mg/kg/injection, schedule: Q01DX001 (ip), vehicle: distilled water + Tween-80 + alcohol): 4 of 4
survivor count (dose: 27.0 mg/kg/injection, schedule: Q01DX001 (ip), vehicle: carboxymethylcellulose (CMC)): 10 of 10
survivor count (dose: 32.0 mg/kg/injection, schedule: Q04DX003 (ip), vehicle: saline + alcohol): 4 of 4
survivor count (dose: 40.0 mg/kg/injection, schedule: Q01DX001 (ip), vehicle: carboxymethylcellulose (CMC)): 10 of 10
survivor count (dose: 40.0 mg/kg/injection, schedule: Q01DX001 (ip), vehicle: distilled water + Tween-80 + alcohol): 4 of 4
survivor count (dose: 50.0 mg/kg/injection, schedule: Q01DX001 (ip), vehicle: carboxymethylcellulose (CMC)): 10 of 10
survivor count (dose: 50.0 mg/kg/injection, schedule: Q04DX003 (ip), vehicle: Klucel (hydroxypropylcellulose) (HPC)): 10 of 10
survivor count (dose: 67.0 mg/kg/injection, schedule: Q01DX001 (ip), vehicle: distilled water + Tween-80 + alcohol): 4 of 4
